We go through five molecules from PMC11480203.

Sequences of proteins named here, by UniProt entry; tags and fusion partners are left off.
UniProt O75376: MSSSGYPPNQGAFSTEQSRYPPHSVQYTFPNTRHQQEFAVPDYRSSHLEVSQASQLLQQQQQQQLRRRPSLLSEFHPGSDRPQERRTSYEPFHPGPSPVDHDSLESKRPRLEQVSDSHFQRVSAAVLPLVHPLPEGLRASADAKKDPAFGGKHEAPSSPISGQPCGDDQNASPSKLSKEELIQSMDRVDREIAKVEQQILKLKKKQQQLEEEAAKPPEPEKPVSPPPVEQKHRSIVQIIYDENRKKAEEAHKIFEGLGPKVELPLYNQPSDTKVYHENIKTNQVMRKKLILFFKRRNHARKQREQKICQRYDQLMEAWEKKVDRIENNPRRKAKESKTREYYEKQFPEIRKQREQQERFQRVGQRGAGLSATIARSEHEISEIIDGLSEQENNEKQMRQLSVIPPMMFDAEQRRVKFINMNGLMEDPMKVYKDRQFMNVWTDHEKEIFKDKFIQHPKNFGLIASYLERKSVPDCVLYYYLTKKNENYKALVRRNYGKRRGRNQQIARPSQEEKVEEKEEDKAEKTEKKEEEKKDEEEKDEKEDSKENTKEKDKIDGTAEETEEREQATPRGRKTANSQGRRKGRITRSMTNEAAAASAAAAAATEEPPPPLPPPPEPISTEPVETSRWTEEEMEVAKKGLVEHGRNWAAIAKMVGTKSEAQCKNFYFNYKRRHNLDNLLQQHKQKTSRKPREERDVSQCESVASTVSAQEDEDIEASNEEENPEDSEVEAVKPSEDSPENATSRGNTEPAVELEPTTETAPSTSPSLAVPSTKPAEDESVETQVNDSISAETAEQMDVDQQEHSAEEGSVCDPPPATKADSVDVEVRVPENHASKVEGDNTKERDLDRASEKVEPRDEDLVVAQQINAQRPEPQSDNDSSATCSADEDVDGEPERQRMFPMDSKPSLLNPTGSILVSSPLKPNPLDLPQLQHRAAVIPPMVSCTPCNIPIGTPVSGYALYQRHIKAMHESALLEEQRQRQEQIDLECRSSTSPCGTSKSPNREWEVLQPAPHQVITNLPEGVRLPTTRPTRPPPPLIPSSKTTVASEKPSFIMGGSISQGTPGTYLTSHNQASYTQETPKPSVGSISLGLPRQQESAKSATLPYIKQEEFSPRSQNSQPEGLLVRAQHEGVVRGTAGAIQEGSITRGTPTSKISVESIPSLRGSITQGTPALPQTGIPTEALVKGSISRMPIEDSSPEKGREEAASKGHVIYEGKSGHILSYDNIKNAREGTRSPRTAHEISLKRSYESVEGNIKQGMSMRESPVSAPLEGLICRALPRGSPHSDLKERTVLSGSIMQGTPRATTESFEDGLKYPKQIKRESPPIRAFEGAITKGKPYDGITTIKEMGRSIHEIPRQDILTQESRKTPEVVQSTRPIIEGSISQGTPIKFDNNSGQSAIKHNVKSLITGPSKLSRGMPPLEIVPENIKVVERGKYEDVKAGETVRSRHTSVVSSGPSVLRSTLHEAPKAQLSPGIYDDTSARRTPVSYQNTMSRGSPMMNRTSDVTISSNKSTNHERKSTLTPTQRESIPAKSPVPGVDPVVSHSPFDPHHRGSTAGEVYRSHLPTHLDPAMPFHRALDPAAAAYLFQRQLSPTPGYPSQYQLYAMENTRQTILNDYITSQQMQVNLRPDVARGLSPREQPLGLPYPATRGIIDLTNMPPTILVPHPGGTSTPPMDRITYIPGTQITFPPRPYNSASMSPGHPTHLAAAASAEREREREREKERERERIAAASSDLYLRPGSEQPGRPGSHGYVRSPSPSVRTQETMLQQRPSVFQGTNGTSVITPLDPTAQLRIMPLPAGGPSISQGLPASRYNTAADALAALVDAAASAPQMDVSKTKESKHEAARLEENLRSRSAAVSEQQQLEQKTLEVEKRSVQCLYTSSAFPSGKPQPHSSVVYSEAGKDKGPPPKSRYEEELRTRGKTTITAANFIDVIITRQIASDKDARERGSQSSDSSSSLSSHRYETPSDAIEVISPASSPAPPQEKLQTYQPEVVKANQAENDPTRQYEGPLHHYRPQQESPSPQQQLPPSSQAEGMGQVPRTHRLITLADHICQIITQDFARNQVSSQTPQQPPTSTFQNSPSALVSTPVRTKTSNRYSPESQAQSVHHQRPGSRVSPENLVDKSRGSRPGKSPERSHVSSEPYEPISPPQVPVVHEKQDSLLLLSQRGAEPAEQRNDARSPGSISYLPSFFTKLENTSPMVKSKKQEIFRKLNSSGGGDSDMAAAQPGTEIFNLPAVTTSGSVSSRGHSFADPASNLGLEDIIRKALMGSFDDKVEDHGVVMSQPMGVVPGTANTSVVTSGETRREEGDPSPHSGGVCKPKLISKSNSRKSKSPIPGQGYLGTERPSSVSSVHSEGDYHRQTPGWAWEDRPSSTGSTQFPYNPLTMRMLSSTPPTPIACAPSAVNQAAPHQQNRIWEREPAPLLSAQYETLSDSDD
UniProt P51531: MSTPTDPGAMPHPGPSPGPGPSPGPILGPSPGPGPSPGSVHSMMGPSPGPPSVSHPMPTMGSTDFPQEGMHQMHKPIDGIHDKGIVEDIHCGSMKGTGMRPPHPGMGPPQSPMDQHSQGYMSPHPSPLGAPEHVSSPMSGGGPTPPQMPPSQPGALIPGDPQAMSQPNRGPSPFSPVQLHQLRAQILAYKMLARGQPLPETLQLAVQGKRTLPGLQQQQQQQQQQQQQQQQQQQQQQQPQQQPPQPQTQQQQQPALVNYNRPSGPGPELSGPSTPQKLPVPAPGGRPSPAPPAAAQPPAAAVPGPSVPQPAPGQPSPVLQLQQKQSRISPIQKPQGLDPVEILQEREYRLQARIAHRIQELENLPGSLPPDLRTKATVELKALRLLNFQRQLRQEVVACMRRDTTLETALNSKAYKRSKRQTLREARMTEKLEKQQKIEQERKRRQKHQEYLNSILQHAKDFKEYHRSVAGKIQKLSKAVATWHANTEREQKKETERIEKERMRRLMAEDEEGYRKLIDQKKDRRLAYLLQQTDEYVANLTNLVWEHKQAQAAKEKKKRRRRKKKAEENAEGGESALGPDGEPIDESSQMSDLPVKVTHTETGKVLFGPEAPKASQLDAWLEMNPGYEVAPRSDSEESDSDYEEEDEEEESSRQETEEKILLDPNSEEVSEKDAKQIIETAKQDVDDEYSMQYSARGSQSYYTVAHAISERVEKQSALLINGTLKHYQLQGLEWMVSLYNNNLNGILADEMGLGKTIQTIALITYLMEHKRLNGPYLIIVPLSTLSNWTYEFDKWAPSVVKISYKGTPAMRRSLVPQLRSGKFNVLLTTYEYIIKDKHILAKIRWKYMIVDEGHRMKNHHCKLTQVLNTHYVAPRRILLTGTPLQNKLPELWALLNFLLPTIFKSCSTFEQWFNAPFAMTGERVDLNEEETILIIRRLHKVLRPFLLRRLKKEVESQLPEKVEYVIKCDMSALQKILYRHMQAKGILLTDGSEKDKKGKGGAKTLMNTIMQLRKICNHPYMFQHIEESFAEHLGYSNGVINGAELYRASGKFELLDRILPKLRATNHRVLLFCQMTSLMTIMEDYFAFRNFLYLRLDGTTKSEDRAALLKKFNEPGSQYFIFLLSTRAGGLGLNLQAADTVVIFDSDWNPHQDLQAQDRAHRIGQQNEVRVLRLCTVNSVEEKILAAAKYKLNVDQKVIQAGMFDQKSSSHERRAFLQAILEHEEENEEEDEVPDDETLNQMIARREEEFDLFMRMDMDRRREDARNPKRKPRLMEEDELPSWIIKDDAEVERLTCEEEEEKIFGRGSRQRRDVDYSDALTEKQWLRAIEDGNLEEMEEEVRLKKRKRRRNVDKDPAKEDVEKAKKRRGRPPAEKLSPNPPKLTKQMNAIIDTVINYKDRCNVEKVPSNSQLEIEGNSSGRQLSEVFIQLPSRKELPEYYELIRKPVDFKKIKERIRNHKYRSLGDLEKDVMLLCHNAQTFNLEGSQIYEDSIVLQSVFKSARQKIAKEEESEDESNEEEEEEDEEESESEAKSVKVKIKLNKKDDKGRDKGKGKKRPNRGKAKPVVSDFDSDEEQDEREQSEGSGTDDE
UniProt P51532: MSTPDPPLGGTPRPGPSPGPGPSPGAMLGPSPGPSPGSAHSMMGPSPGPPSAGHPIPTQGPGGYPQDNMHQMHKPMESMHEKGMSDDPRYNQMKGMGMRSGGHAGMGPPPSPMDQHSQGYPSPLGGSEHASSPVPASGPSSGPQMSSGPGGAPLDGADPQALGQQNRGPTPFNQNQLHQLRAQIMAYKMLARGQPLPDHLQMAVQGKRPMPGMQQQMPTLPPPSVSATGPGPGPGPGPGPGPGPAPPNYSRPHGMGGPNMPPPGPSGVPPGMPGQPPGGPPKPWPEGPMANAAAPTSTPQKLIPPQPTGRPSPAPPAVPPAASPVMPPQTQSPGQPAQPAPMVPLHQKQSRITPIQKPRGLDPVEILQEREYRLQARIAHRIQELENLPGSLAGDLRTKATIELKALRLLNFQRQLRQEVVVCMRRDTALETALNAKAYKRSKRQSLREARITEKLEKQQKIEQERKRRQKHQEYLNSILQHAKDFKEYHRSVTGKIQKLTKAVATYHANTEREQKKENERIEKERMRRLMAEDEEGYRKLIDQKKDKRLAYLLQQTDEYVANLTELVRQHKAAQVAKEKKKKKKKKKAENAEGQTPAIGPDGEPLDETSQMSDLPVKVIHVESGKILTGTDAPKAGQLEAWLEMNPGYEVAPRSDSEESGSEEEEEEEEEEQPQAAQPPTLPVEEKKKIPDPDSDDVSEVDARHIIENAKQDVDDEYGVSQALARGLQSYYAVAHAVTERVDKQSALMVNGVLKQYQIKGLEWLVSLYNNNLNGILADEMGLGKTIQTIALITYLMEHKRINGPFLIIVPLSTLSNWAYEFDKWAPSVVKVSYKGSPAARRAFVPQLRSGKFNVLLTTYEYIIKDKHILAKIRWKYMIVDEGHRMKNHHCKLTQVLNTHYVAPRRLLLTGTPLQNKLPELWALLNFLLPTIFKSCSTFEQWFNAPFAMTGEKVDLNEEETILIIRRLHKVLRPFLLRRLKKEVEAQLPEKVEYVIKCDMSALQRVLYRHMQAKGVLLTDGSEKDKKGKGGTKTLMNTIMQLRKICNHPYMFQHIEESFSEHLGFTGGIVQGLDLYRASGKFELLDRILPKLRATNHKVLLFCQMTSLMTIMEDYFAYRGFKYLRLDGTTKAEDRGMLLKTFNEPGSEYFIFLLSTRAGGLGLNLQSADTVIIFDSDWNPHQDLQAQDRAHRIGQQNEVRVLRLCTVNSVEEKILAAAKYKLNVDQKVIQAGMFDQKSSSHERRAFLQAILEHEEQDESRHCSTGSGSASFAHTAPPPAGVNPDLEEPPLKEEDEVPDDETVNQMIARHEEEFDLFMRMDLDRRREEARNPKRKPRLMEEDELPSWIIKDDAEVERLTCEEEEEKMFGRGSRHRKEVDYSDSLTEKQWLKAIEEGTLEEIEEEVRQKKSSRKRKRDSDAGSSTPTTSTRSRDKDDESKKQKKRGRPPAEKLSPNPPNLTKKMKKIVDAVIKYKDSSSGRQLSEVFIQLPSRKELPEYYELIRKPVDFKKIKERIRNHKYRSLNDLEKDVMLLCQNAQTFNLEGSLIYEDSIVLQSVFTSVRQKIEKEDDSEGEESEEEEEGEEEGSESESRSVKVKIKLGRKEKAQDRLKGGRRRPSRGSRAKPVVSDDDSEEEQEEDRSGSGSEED
UniProt P46937: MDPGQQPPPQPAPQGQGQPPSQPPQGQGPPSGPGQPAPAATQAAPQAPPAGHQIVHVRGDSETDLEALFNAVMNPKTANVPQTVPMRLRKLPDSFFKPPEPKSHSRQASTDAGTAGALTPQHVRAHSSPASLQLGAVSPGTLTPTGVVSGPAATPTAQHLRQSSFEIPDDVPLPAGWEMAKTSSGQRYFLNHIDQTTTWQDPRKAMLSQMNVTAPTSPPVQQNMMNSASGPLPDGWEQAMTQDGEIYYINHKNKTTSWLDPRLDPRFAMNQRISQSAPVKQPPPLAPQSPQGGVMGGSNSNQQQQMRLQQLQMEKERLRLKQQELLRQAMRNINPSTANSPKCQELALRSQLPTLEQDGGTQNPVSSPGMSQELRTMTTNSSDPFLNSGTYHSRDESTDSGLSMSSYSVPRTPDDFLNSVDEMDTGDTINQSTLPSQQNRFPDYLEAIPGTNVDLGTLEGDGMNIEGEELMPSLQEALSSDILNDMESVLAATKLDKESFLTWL

These are yes or no findings as the source states them, for the method shown. In cells and extracts the contact can be indirect. Here binding means that the protein was enriched with, or labelled near, the bait; the list need not be complete. For some assays here: Where a sequence is shown, tags or fusion partners need not be part of it.

Common to all, as to assay: proximity labelling; BioID: BirA*-JUN fusion proteins stably expressed in MCF10A JUN knockout cells, 50 uM biotin for 18 h; biotinylated proteins captured on streptavidin Sepharose, DIA mass spectrometry; compared with the NLS-Flag-BirA* control
The target of one test is JUN WT-BirA*-Flag (UniProt P05412).
The next test has as its target BirA*-Flag-JUN WT (UniProt P05412).
The target in test [1] is T1, BirA*-Flag-JUN WT, P05412.
T1 chain: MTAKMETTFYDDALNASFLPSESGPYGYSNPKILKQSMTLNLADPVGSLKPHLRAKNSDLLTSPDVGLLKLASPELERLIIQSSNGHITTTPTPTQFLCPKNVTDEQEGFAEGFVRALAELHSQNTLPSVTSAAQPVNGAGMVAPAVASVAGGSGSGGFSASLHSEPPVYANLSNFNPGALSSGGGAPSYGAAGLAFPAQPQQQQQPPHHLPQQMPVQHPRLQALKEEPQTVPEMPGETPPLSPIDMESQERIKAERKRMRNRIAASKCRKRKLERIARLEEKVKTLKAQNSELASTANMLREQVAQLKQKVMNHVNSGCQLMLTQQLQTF
To be noted: remark: other sources report otherwise.

On to NCOR1 (from UniProt O75376 1-2440), for which the binding result in the test with JUN WT-BirA*-Flag and with BirA*-Flag-JUN WT was “binds” in each case.

With SMARCA2 (from UniProt P51531 1-1590), the binding result with JUN WT-BirA*-Flag and with BirA*-Flag-JUN WT was “binds” throughout.

As for SMARCA4 (from UniProt P51532 1-1647), the binding result with JUN WT-BirA*-Flag and with BirA*-Flag-JUN WT was “binds” in each case.

With “Yes-associated protein (YAP) (from UniProt P46937 1-504)”, the binding result with BirA*-Flag-JUN WT is “binds”.

B1: FOSB, P53539 1-338 (protein)
chain: MFQAFPGDYDSGSRCSSSPSAESQYLSSVDSFGSPPTAAASQECAGLGEMPGSFVPTVTAITTSQDLQWLVQPTLISSMAQSQGQPLASQPPVVDPYDMPGTSYSTPGMSGYSSGGASGSGGPSTSGTTSGPGPARPARARPRRPREETLTPEEEEKRRVRRERNKLAAAKCRNRRRELTDRLQAETDQLEEEKAELESEIAELQKEKERLEFVLVAHKPGCKIPYEEGPGPGPLAEVRDLPGSAPAKEDGFSWLLPPPPPPPLPFQTSQDAPPNLTASLFTHSEVQVLGDPFPVVNPSYTSSFVLTCPEVSAFAGAQRTSGSDQPSDPLNSPSLLAL
In the case of B1, in test [1], the binding entry is on record as “binds”.
